Data reported in PubChem BioAssay AID540276 (National Center for Advancing Translational Sciences (NCATS), 2011).
About 5,400 (1.8%) of roughly 300,000 compounds were called active. The inconclusive results got no clear call from the source; some entries with a clear call stand among them for comparison. Calls come from the whole dose curve; tested in HEK293 cells. Where the call is inconclusive, the potency comes from a doubtful curve fit.
% is set by controls: 0 for no effect and ±100 for the full control effect; potency is the fitted concentration of half-maximal effect.

Assay: qHTS for inhibitors of binding or entry into cells for Marburg Virus
Details: Marburg virus pseudotyped entry inhibition, cell reporter; activity change, negative = inhibition: at 37.8 µM (top of the series) unless noted
For `C/C(=N\NC(=O)c1ccc2ccccc2c1)c1cccnc1`, the Potency was inconclusive: 7.08 µM [activator, partial curve, poor fit]. In the case of `COc1ccc(C(C)=O)cc1CN(C)C`, the “activity change, negative = inhibition” value was inactive: 3.97%. In the case of `COc1ccc(OCC(=O)Nc2nnc(C)s2)cc1`, the Potency was inconclusive: 6.31 µM [activator, partial curve]. In the case of `COc1cc([N+](=O)[O-])c2ncsc2c1`, the “activity change, negative = inhibition” value was inactive: 3.03%. With `Cc1nc(SCC(=O)Nc2ccc(F)cc2)c2oc3ccccc3c2n1` the “activity change, negative = inhibition” value was inactive: -8.82%. With `CCOc1ccccc1N1CCN(C(=O)c2cc(-c3cc(OC)ccc3OC)nc3ccccc23)CC1` the Potency was inconclusive: 7.08 µM [inhibitor, partial curve, poor fit]. With `COc1ccc(C2CC(=O)c3c(C)nc(N4CCN(Cc5ccccc5)CC4)nc3C2)cc1OC` (stereo unspecified) the Potency was active: 18.3 µM. In the case of `N/C(=N\OC(=O)c1cccc(F)c1)c1ccccc1`, the “activity change, negative = inhibition” value was inactive: 2.53%. With `CCCN(CCC)CC(O)Cn1cc(/C=C/C(=O)c2ccc(Br)cc2)c2ccccc21` (stereo unspecified) the “activity change, negative = inhibition” value was inactive: -6.64% [at 46.1 µM]. In the case of `CC12CN3CC(C)(CN(C1)C3c1ccc3c(c1)OCO3)C2O` (stereo unspecified), the “activity change, negative = inhibition” value was inactive: 3.25%. In the case of `COc1ccc(CNC(=O)c2ccc3c(=O)n4c(nc3c2)CCCCC4)cc1OC`, the Potency was inconclusive: 0.224 µM [inhibitor, full curve, poor fit]. With `O=C(Nc1cccc2ccccc12)NC(Cc1ccccc1)C(=O)O` (stereo unspecified) the Potency was inconclusive: 1.58 µM [activator, partial curve, poor fit]. In the case of `CC(=O)Nc1ccc(S(=O)(=O)NNC(=O)COc2ccc(C)cc2)cc1`, the Potency was inconclusive: 5.62 µM [activator, single point]. With `CCN(CC)c1cc(NCCO)c([N+](=O)[O-])c2nonc12` the Potency was inconclusive: 5.62 µM [activator, partial curve, poor fit]. For `Cn1cccc1C(=O)C(=O)Nc1ccc(Cl)cc1`, the Potency was inconclusive: 10 µM [inhibitor, single point]. In the case of `CCOC(=O)C1(CCOc2ccccc2)CCN(C2Cc3ccccc3C2)CC1`, the “activity change, negative = inhibition” value was inactive: -22.5% [at 46.1 µM]. For `COc1ccc(-n2nc(C(=O)NCC(=O)N3CCC(C)CC3)c3ccccc3c2=O)cc1Cl`, the Potency was inconclusive: 1.41 µM [inhibitor, partial curve, poor fit]. For `O=C1c2ccccc2CC1Sc1nnc(-c2ccccn2)o1` (stereo unspecified), the Potency was inconclusive: 0.631 µM [inhibitor, partial curve, poor fit]. For `O=c1nc(Nc2ccc(OCc3ccccc3)cc2)sc2ncccc12`, the Potency was inconclusive: 4.47 µM [inhibitor, full curve, poor fit]. In the case of `CCOc1ncccc1C(=O)OCC(=O)Nc1cccc(S(=O)(=O)N2CCCCCC2)c1`, the Potency was inconclusive: 0.1 µM [inhibitor, full curve, poor fit]. With `CC1CCN(C(=O)c2cc3c(=O)n4ccccc4nc3s2)CC1` the “activity change, negative = inhibition” value was inactive: 4.87% [at 46.1 µM]. In the case of `COc1ccccc1N=Cc1c(O)c2ccccc2oc1=O`, the Potency was inconclusive: 7.94 µM [activator, partial curve, poor fit]. With `Cc1cc(NC(=O)CCC(=O)N(c2cccnc2)C(C(=O)NC2CCCC2)c2ccccc2)no1` (stereo unspecified) the Potency was inconclusive: 14.1 µM [inhibitor, partial curve, poor fit]. In the case of `COc1cccc(C(=O)NCC2CCCO2)c1` (stereo unspecified), the “activity change, negative = inhibition” value was inactive: 0.571%. For `COc1ccccc1NC(=S)Nc1cccc2cnccc12`, the Potency was inconclusive: 35.5 µM [inhibitor, single point]. In the case of `O=C(COc1ccccc1[N+](=O)[O-])N/N=C/C=C/c1ccco1`, the Potency was inconclusive: 3.55 µM [activator, full curve, poor fit]. With `CCOC(=O)C1CCN(C(=O)/C=C/c2cccs2)CC1` the Potency was inconclusive: 31.6 µM [activator, single point]. With `O=C(CCCN1C(=O)S/C(=C\c2ccccc2)C1=O)NNC(=O)c1ccccc1O` the Potency was active: 1.78 µM. In the case of `Cc1noc(NS(=O)(=O)c2ccc(NC(=O)C(F)(F)C(F)(F)C(F)(F)F)cc2)c1C`, the “activity change, negative = inhibition” value was inactive: 10.5% [at 46.1 µM]. For `CCn1c2ccccc2c2cc(/C=N/NC(=O)c3ccccc3C)ccc21`, the Potency was inconclusive: 7.08 µM [inhibitor, full curve]. For `O=C(Nn1c(C2CCCCC2)nc2ccccc2c1=O)c1ccc([N+](=O)[O-])cc1`, the Potency was inconclusive: 3.98 µM [inhibitor, single point]. With `Cc1ccc(/C(=N/Nc2nc3ccccc3s2)C2=C(O)c3ccccc3C2=O)cc1` the “activity change, negative = inhibition” value was inactive: -1.13% [at 46.1 µM]. With `[O-][n+]1ccccc1SC/C=C/c1ccccc1` the Potency was inconclusive: 3.55 µM [activator, single point]. For `O=C(C(=O)N1CCCCC1)c1c(-c2ccccc2)[nH]c2ccccc12`, the “activity change, negative = inhibition” value was inactive: -6.1% [at 46.1 µM]. In the case of `Cc1cccc(OCCCc2c(C)n[nH]c2C)c1`, the Potency was inconclusive: 32.6 µM [inhibitor, single point]. In the case of `Cc1nc(Nc2ccccc2F)c2oc3ccccc3c2n1`, the Potency was inconclusive: 0.562 µM [activator, single point]. For `Cc1cc(C)c(Cn2c(C3CC(=O)N(c4ccc(F)cc4)C3)nc3ccccc32)c(C)c1` (stereo unspecified), the Potency was inconclusive: 15.8 µM [inhibitor, single point]. For `S=c1[nH]nc(-c2ccco2)n1-c1ccccc1Cl`, the “activity change, negative = inhibition” value was inactive: 1.77% [at 46.1 µM]. For `O=C(N/N=C/c1ccc2cccnc2c1)c1nc2ccccc2c(=O)[nH]1`, the “activity change, negative = inhibition” value was inactive: 1.44%. With `Cc1nnc(NC(=O)c2cccc(F)c2)s1` the Potency was inconclusive: 11.2 µM [activator, single point]. For `CCOC(=O)c1ccc2c(c1)C1C=CCC1C(C(=O)O)N2` (stereo unspecified), the “activity change, negative = inhibition” value was inactive: -0.939%. In the case of `Cc1sc(NC(=O)Cc2ccc3c(c2)OCO3)nc1-c1ccc2c(c1)CCN2C(=O)c1cccc(F)c1`, the Potency was inconclusive: 1.41 µM [inhibitor, partial curve, poor fit]. For `Cc1ccc2oc(NC(=O)N3CCOCC3)cc(=O)c2c1`, the Potency was inconclusive: 2.31 µM [inhibitor, partial curve, poor fit]. In the case of `Cc1cccc(Cc2cnc(N3C(=N)SC(C)C3=O)s2)c1` (stereo unspecified), the Potency was inconclusive: 35.5 µM [inhibitor, single point]. For `CCC(c1nnnn1C1CCCCC1)N1CCN(C2CCCC2)CC1` (stereo unspecified), the Potency was inconclusive: 11.2 µM [inhibitor, partial curve, poor fit]. For `O=C(O)CCN1CC2([N+](=O)[O-])C=CC(=O)C([N+](=O)[O-])(C1)C2CC(=O)c1ccccc1` (stereo unspecified), the “activity change, negative = inhibition” value was inactive: -1.36%. For `COc1cc(C)c(Cl)cc1S(=O)(=O)NCCN1CCOCC1`, the Potency was inconclusive: 0.0052 µM [inhibitor, full curve, poor fit]. With `O=C(NCCN1CCOCC1)c1cc(S(=O)(=O)NCCCN2CCCC2=O)ccc1Cl` the Potency was inconclusive: 6.31 µM [activator, single point]. In the case of `CC1CN=C(N(C(=O)Nc2ccccc2)C(C)C)S1` (stereo unspecified), the Potency was inconclusive: 3.55 µM [activator, single point]. For `O=C(NCC(c1ccco1)N1CCCC1)c1cn(-c2ccccc2)nc1-c1ccc(F)cc1` (stereo unspecified), the Potency was inconclusive: 11.2 µM [inhibitor, single point]. With `COCCNC(=O)C(c1ccccc1)N(Cc1cccs1)C(=O)Cn1nnc2ccccc21` (stereo unspecified) the Potency was “inactive”. With `Cc1cc2cc(C(c3nnnn3CC3CCCO3)N3CCCc4ccccc43)c(=O)[nH]c2cc1C` (stereo unspecified) the Potency was inconclusive: 18.3 µM [inhibitor, partial curve]. With `COc1cc(CSc2ncn[nH]2)c(OC)cc1CSc1ncn[nH]1` the “activity change, negative = inhibition” value was inactive: 21.5%. In the case of `Cc1ccc(-c2nc3ccccc3s2)cc1NC(=O)c1ccc2c(c1)OCO2`, the “activity change, negative = inhibition” value was inactive: 19.2%. With `CSc1nc(C)cc(SC(C(C)=O)C(=O)Nc2ccccc2)n1` (stereo unspecified) the Potency was inconclusive: 10 µM [activator, partial curve]. In the case of `[O-]/[N+](=N\Nc1ccc(Cl)cc1)c1ccccc1`, the Potency was inconclusive: 6.31 µM [activator, full curve, poor fit]. In the case of `Cc1c([N+](=O)[O-])cc(C(=O)Nc2ccc3ncccc3c2)cc1[N+](=O)[O-]`, the Potency was inconclusive: 7.08 µM [inhibitor, partial curve, poor fit]. In the case of `Cc1ccc(NC(=O)CN(C)CC(=O)Nc2ccccc2-c2ccccc2)cc1`, the Potency was inconclusive: 22.4 µM [inhibitor, single point]. In the case of `O=C(Cn1cc(C(F)(F)F)ccc1=O)N/N=C/c1ccccc1`, the Potency was inconclusive: 28.2 µM [activator, single point]. In the case of `CC(C)N1CC2(c3ccccc3)CN(C(C)C)CC(c3ccccc3)(C1)C2=O`, the Potency was inconclusive: 31.6 µM [activator, single point]. For `Cc1cc(C)cc(OCC(=O)N2N=C(c3cccnc3)CC2(O)C(F)(F)F)c1` (stereo unspecified), the Potency was inconclusive: 3.98 µM [inhibitor, single point]. For `Cc1ccc(-c2nc(C#N)c(NCC3CCCO3)o2)cc1` (stereo unspecified), the “activity change, negative = inhibition” value was inactive: 1.41% [at 46.1 µM]. In the case of `CC(=O)N1CCc2cc(S(=O)(=O)NC(Cc3ccccc3)C(=O)NCc3ccc(C)cc3)ccc21` (stereo unspecified), the Potency was inconclusive: 28.2 µM [inhibitor, single point]. In the case of `COc1cc(C(=O)Nc2cccc3cccnc23)cc(OC)c1OC`, the “activity change, negative = inhibition” value was inactive: -26.8%. In the case of `O=C(NN=C1CCCC1)c1ccccc1OCc1ccc(Cl)cc1`, the Potency was inconclusive: 35.5 µM [inhibitor, single point]. For `CC(=O)Nc1ccc(SC(C)C(=O)NC2CCCC2)cc1` (stereo unspecified), the “activity change, negative = inhibition” value was inactive: -1.42% [at 46.1 µM]. With `CCCCNS(=O)(=O)c1ccc(C)c(-c2nnc3c4ccccc4c(C)nn23)c1` the “activity change, negative = inhibition” value was inactive: -2.08% [at 46.1 µM]. For `Cc1ccc(Sc2nc(-c3ccccc3)nnc2C(F)(F)F)cc1`, the Potency was inconclusive: 23.1 µM [inhibitor, single point]. For `O=C(/C(=C/O)N=Nc1ccccc1)c1cccs1`, the Potency was inconclusive: 12.6 µM [inhibitor, single point]. In the case of `Cc1cccc(N2C(=O)C(Oc3ccc(Cl)cc3Cl)C2C(=O)O)c1C` (stereo unspecified), the “activity change, negative = inhibition” value was inactive: 0.596%. For `Cc1nc(C(=O)NNC(=O)c2ccc(Cl)cc2)cs1`, the Potency was inconclusive: 35.5 µM [inhibitor, single point].
